Experimental data: patent publication US5670482A (Glaxo Wellcome Inc., priority 1992, dated 1997)

Assay: solid-phase peptide synthesis
Details: whole synthesis, capillary zone electrophoresis

IleCysProCysTyrArgLeuArgTyr-NH2,Cyclic(2,2'), (4,4')-Disulfide Dimer and IleCysProCysTyrArgLeuArgTyr-NH2,Cyclic(2,4'),(4,2')-Disulfide Dimer
final purity (method not given): 100% pure
